Source: the supplement of paper PMC10338343
± gives the standard deviation. Only a part is listed here, and it is no random draw. The uncertainty is large for many entries.

Tested on: MIWI (PIWIL1) piRISC loaded with L1MC piRNA (30 nt)
Assay: pre-steady-state target cleavage rate (min^-1); MIWI and MILI are mouse PIWI proteins and EfPiwi is from a freshwater sponge; tags in brackets are library labels; higher = faster piRNA-guided slicing of the target
Conditions: guide: L1MC piRNA 5'p-UAACUAAAUACUAUGCAAGCUGUAGGUCCU
Method in brief: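 A burst-and-steady-state fit was used to obtain the pre-steady-state cleavage rate. The input data were sequencing reads of uncleaved targets, normalised to depth and to weakly complementary targets, from a […] transcribed, DNA-blocked target RNA library mixed with 1 nM active affinity-purified piRISC holding one synthetic guide, with or without 500 nM GTSF1 partner protein, in HEPES–potassium acetate buffer at 33 °C for 0–8 or 0–960 min. Three trials were pooled and k3 was capped at 0.0001 min^-1.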

[1] = auxiliary factor: none (no GTSF1)
[2] = auxiliary factor: 500 nM mouse GTSF1
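Further: 1 nM active piRISC with 0.1 nM target library at 33 °C single turnover.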

Row | Sequence | pre-steady-state target cleavage rate [1] | pre-steady-state target cleavage rate [2]
1 | UCGACCUACAGCUUGCAUAGUUAAUAGAAA | 0.00106 ± 0.0058 | –
2 | UGGACCUACAGCAUGCAUAGUAUUUUCAAA | 0.00173 ± 0.0041 | –
3 | UCCUGGAUGUCGAAGCAAAGUAUUUAGUAA | 0.000527 ± 0.01 | –
4 | UCCUGGAUGUCGAACCAUAGUAAAUAGUUA | 0.000506 ± 0.011 | –
5 | UGGACCUACAGCUUGCAUAGUAAAUAGUAA | 0.00271 ± 0.0031 | –
6 | UCGACCUACAGCUUGCAUAGUAAAAACAAA | 0.00024 ± 0.018 | –
7 | UGGACCUACAGCUUGCAUAGUAUUUAGUUA [g2:g29:cont:t1A] | – | 1.61 ± 0.09
8 | AGGACCUACAGCUUGCAUACAAUUUAGAAA | 0.00102 ± 0.0069 | –
9 | AGGUGCUACAGCUUGCAUAGUAUUUACAAA | 0.00252 ± 0.0027 | –
10 | UCCUGGAUGUCGAACCAUAGUAUUUUGUAA | – | 0.000149 ± 0.03
11 | UCGACCUACAGCUCGCAUAGUAUUUAGUUA | – | 1.55 ± 0.04
12 | AGGAUCCUACAGCUUGCAUAGUAUUUAGUUA | – | 1.4 ± 0.068
13 | UGGACCUACAGCUUGCAAAGUAUUUAGUUA | – | 1.36 ± 0.058
14 | UCCUGGAUGUCGAACGUAUGUAUUUAAUUA | – | 0.000227 ± 0.022
15 | AGGACCUACAGCUUGCAAUCUAUUUAGUUA | 0.00262 ± 0.0028 | –
16 | UCGACCUUCAGCUUGCAUAGUAUUUUCAAA | 0.00278 ± 0.0034 | –
17 | UCCUGGAUGUCGAACGAUACUAUUAAGUUA | 0.00023 ± 0.025 | –
18 | UCCACCUACAGCUUGCAUACGUAUUUAGUUA | 0.00079 ± 0.0098 | –
19 | UCGACCUACAGCUAGCAUAGUAUUUUCAAA | 0.00108 ± 0.0073 | –
20 | UCCUGGAUGUCGAACCAUAGUAAUUAGAUA | 0.000177 ± 0.028 | –
21 | UCCUGGAUGUCGUUGCAUAGAAUUUACUUA | 0.000162 ± 0.016 | –
22 | UGGACCUACAGCUUGCAAUGUAUUUAGAAA | 0.00156 ± 0.0031 | –
23 | UCGACCUACAGCUUGCAAUCUAUUUUCAAA | 0.00077 ± 0.01 | –
24 | UGGACCUACAGCAACCAUAGUAUUUAGUAA | 0.00053 ± 0.0058 | –
25 | AGGACCUACUCGUUGCAUAGUAUUUUCAAA | 0.00192 ± 0.0023 | –
26 | UGGACCUACAGCUUGCAUUCUAUUUUCAAA | 0.000194 ± 0.011 | –
27 | UCGACCUUGUGCUUGCAUAGUAUUUUCAAA | 0.00146 ± 0.0026 | –

Quoted from the listing:
pre-steady-state target cleavage rate [2] with UGGACCUACAGCUUGCAUAGUAUUUAGUUA [g2:g29:cont:t1A] is entered as 1.61 ± 0.09
pre-steady-state target cleavage rate [2] with UCCUGGAUGUCGAACCAUAGUAUUUUGUAA is entered as 0.000149 ± 0.03
pre-steady-state target cleavage rate [1] with AGGUGCUACAGCUUGCAUAGUAUUUACAAA is entered as 0.00252 ± 0.0027
pre-steady-state target cleavage rate [1] with AGGACCUACAGCUUGCAAUCUAUUUAGUUA is entered as 0.00262 ± 0.0028
pre-steady-state target cleavage rate [1] with UCGACCUUCAGCUUGCAUAGUAUUUUCAAA is entered as 0.00278 ± 0.0034

The list continues.

Row | Sequence | pre-steady-state target cleavage rate [1] | pre-steady-state target cleavage rate [2]
28 | UCGACCUACAGCAACCAUAGUAUUUAGUAA | 0.000799 ± 0.0073 | –
29 | UGGACCUACAGCUUGCAUAGAUAAAUCAAA [g11:g29:cont:t1A] | 0.000221 ± 0.012 | –
30 | UCGACCUACAGCUAGCAUAGUAUUUACAAA | 0.00166 ± 0.0049 | –
31 | UCCUGGAUGUCGAACCAUAGUAUUUAGUCUA | – | 0.000155 ± 0.036
32 | AGGACCUACAGCUUGCAUUCAAUUUAGUAA | 0.00118 ± 0.0072 | –
33 | AGGACCUACAGCUUGCAUACAUUUUAGAAA | 0.000866 ± 0.0095 | –
34 | UCCACCUACAGCUUGCUUAGUAUUUACAAA | 0.00142 ± 0.0045 | –
35 | UCGACCUACAGCUUCCAUAGUAUAUAGUUA | 0.00106 ± 0.0058 | –
36 | AGGUCCUACAGCUUGCAAAGUAUUUAGUUA | – | 1.35 ± 0.043
37 | UCCUGGAUGUCGAACGAUAGUAUUAGUUA | 0.000239 ± 0.028 | –
38 | UCCACCUACAGCUUGCAUAGUAAAAAGUAA | 0.000908 ± 0.0078 | –
39 | UCGACCUACAGCAAGCAUAGUAUUUACAAA | 0.000635 ± 0.0075 | –
40 | UCCACCUACAGCUUGGUAAGUAUUUUCAAA | 0.000594 ± 0.0088 | –
41 | UCCACCUACAGCUUGCUAAGUAUUUACAAA | 0.000243 ± 0.012 | –
42 | UGGACCUACACGUUGCAUAGUAUUUAGAAA | 0.00209 ± 0.003 | –
43 | UGGACCUACAGCUUGCAUAGUAAAUUCAAA | 0.000308 ± 0.0089 | –
44 | UCCUGGAUGUCGAUGCAUUCAAUUUAGUUA | 0.000514 ± 0.011 | –
45 | UCGACCUACAGCUUGCCAUAGUAUUUAGUUA | 0.0029 ± 0.0036 | –
46 | UGGACCUACAGCUUGGUAAGUAUUUAGUAA | 0.000474 ± 0.0072 | –
47 | UCCACCUACAGCUUGCAUAAGUAUUUAGUUA | 0.000821 ± 0.0095 | –
48 | UCGACCUACAGCUACGAUAGUAUUUACAAA | 0.000531 ± 0.0074 | –
49 | UGGACCUACAGCUUGCAUAGUAUAUUCAAA | 0.00143 ± 0.0051 | –
50 | UCCACCUACAGCUUCCAUUGUAUUUAGUUA | 0.00204 ± 0.0027 | –
51 | UGGACCUACAGCUUCCUUAGUAUUUAGUUA | 0.00189 ± 0.0026 | –
52 | UGGACCUACAGCUUGCAUAUGUAUUUAGUUA | 0.000759 ± 0.0078 | –
53 | AGGUCCUUCAGCUUGCAUAGUAUUUAGUUA | – | 1.42 ± 0.05
54 | UCCACCUACAGCUUGCUUAGUAUUUUCAAA | 0.000778 ± 0.0065 | –
